This is an account of results in PubChem BioAssay AID1347423 (Functional Genomics Laboratory (NCATS/FGL), 2020).

Among all 52,000 sequences or so, about 210 (0.4%) were called active.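 Rule for the calls: active = gene whose silencing raises cell survival under the drug, median off-target-corrected z-score across its silencing RNAs 2 or more; inactive = the rest.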 The list shows a part of the results.

This assay can be described thus: Resistance to Poly (ADP-Ribose) Polymerase inhibitor: Gene Identification via Genome-wide siRNA Screen. To be noted: mouse BRCA2 R2336H ES cells, olaparib, CellTiter-Glo viability; stronger effect = higher value. An outline of the steps: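 Mouse BRCA2 R2336H ES cells were reverse-transfected with siRNA (20 nM final), treated at 48 h with 500 nM olaparib, and read by CellTiter-Glo after 72 h. Scores: MAD-based z per siRNA, median per gene, seed off-target correction.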
A general note: In ATP-based viability assays light output follows the ATP content of the culture.
For the sequence “GGCUUAUUGGCUUGACCAATT against 4933417E01Rik”, the z-score is inactive: 1.31.

GGGUAACCACAGAGAGAAUTT against Slc12a4: the z-score is inactive: -0.95. For GGUAAACAGAGGUUUUAAGTT against Golga3, the z-score was inactive: 1.26. Take “GGUGUUUGUUAACUACUCGTT against D430039N05Rik”: the z-score was inactive: -0.187. On to CGGACAACAACCUCUGCCATT against Pycrl, for which the z-score is inactive: -1.31. The same measure for GGGCAAGCAGUUUUUAUGGTT against Mcph1: inactive: 0.0351; for GCCACAAGCAAUAGUCAGATT against Gm867: inactive: 0.738; for GGCACAAGAAAUUUGAUGATT against Gpc6: inactive: -0.132. As for CCCAAUUCUUUCAACCCAGTT against Caln1, the z-score was inactive: 1.18.

In the case of GCACAGAGCCUAAUCAUUCTT against Oog2, the z-score is inactive: -0.115.

Regarding CCUCUAGCAUUAGAAACACTT against Pax3, the z-score was inactive: 0.153. The same measure for GGUUAUUACGUAGUUGGUATT against Mcp: inactive: -0.714; for “GGAGAAAACUAAAUAAGCATT against 4930579A11Rik”: inactive: 0.578; for GCUACUCUUAUUCUACUUCTT against Slc29a3: inactive: 0.309. Take GGUUUUUUUUUCGGCUUACTT against Cnga3: the z-score is inactive: 0.304. To CGCGUAUUUGAGAGAUUCUTT against Ckmt2 belongs inactive: 0.253; to GCAAAGUGGUUAUUUGAAATT against Cmya3, inactive: 0.289; to “GGAGUUCCUGAUUUACGUCTT against 4930511O11Rik”, inactive: -0.549. The same measure for GGCGACAUAUUUUUCAAACTT against Fmn: inactive: 1.16. To GGAUAAAAGCAGAUAUGACTT against Hapln1 belongs inactive: -0.352.

With GGAUGUGCGUUCUCACAACTT against Suox, the z-score is inactive: -0.476. For the sequence “GCUGUGUGUGAUUGAUUGGTT against 8430406I07Rik”, the z-score is inactive: 0.358. In the case of “GCACAUUCAGAUGAGGACUTT against 1200013I08Rik”, the z-score is inactive: 0.366.

Turning to “CGAUGGAUCGCUUCCUACATT against 4933405I11Rik”, the z-score was inactive: -1.39. With CCCAGCUGAAGUCUCAAAUTT against Cd209c, the z-score is inactive: 0.819. With GCAUCGUGUGUGUAGAUAATT against AB030190, the z-score is inactive: -1.25. The same measure for “CGAUGCUGUUCUUCAAUGUTT against 6330509G02Rik”: inactive: -1.85. To GGAAAUCCGGCUCAUUGAUTT against Aass belongs inactive: -1.76. For “GGCAUCCUUGGUGUUUGUATT against 5830426I05Rik”, the z-score was inactive: -2.26. To GCCUUUGGAAGUUCAGAACTT against Ubce7ip1 belongs inactive: 0.325; to “GGAGCUCUUUGAGUACAUCTT against 1500035H01Rik”, inactive: 1.18; to “GGAUUCUCGGUGAAAAAGATT against 2310010B21Rik”, inactive: -0.667. For the sequence GCUGUACUAUCUUUUUCAUTT against Olfr165, the z-score was inactive: 1.07. In the case of GGUUGUUAGGAAUCGAUCCTT against Rps26, the z-score was inactive: -2.9. To GGAUCUUAUUUCAGAGCCCTT against Trhr2 belongs inactive: -0.417; to GCAUUUAUUUGGUGGUGUUTT against Olfr1245, inactive: 1.09.

As for GGAUACAUCAGUUUGUAGATT against Abhd6, the z-score was inactive: 0.0263.

For the sequence GGGUCAAGAAGAAUCUUCUTT against Ppp1r14d, the z-score is inactive: 0.572.

Consider GGACCAGCCGAAAAUUACCTT against Cnksr2, for which the z-score is inactive: 0.696.

Turning to “GGCUACUCGGCCCUCUGUUTT against 4930404N11Rik”, the z-score is inactive: -0.973. To GGCAAUUUAAGAAAGAUGUTT against BC027174 belongs inactive: -0.316; to GCAAGGCAUUUUUCUAUUUTT against Sacy, inactive: -0.239.

For “GGAAGAGCUUCCCUGUCUATT against C730027E14Rik”, the z-score is inactive: -2.49. For the sequence GCAUCCGUUCUCCCUUAUGTT against Mrpl4, the z-score is inactive: -1.27. The same measure for “GGAUGUUAUUCAGUUUUCATT against ICRFP703B1614Q5.5”: inactive: 0.664; for CCAAAUACCAUUUCCUACATT against Olfr495: inactive: 0.0794.

In the case of “GGCAGAUUUGGCAAGACAATT against A730008L03Rik”, the z-score is inactive: -1. To GCUCAACGAAACAAUACCGTT against Il2rb belongs inactive: 1.17. To GGAUCGAAAUAGCUCAUGCTT against Hoxa5 belongs inactive: 1.27.

For the sequence GGGUUAUAACUCCUAUUUCTT against Apex2, the z-score is inactive: 0.272.

Regarding “GGCCUUAAUUAGCCUCUCUTT against A630038D02”, the z-score is inactive: -1.01.

In the case of GGUGACCAAACUUAUCUACTT against Ercc2, the z-score is inactive: 0.163.

Take “GGAAGCAGUCAGAGAAGAATT against 1190017O12Rik”: the z-score was inactive: 0.848. To CCCUUAGUUUGACACACUUTT against Tal2 belongs inactive: 0.519; to “GGAAACUGGACAAGUCUUCTT against E130307M08Rik”, inactive: -2.31; to GGGAACUGUUCCAUCUUGCTT against Olfr606, inactive: 0.806. The same measure for GGGAAUUCCUUUAUUGAUCTT against Dhrs9: inactive: 1.96; for GCUUUGGUAGAUCCUAAUATT against Ms4a7: inactive: 1.02. The same measure for GGCUUGAUCAUGACUUAAATT against Armc8: inactive: 1.32. As for GGAGGAAUUUGAGAAGAAUTT against Lasp1, the z-score is inactive: -0.939. To GGAACCAAUAAAUCUGUGCTT against Rfxank belongs inactive: 0.27.

For “GGUAUGCAAGUGGAAUCUGTT against 1300018J18Rik”, the z-score was inactive: -1.29. The same measure for GGAGGAAGAUGAGUUCUACTT against Tcfl1: inactive: -0.34; for GCUGGCAACGUGCUUAUGATT against Stk10: inactive: -0.919; for CCUACUUGAUAUUUUUGGUTT against AU022870: inactive: 0.941.

For the sequence GGAACUUUGCUUUGAUGAUTT against Myo9b, the z-score was inactive: 0.233. The same measure for “GGACAUAGUCUGAGGCAAGTT against 2310016E02Rik”: inactive: -2.77; for CCAUUAAAUGCUGUUGUACTT against Dctn2: inactive: -0.036. As for GGAGAGUUUUCCAGAAUAUTT against Olfr148, the z-score is inactive: -0.732.

In the case of GGGCCCAUUUUCAGAAAUGTT against Tagln3, the z-score is inactive: 0.0108. The same measure for “GGGUUUUUGUGUACAAUGATT against 4932418K24Rik”: inactive: -1.21. To CGGACAUGACAAAACUAGATT against Eef1b2 belongs inactive: 0.132; to GGAGAGCUAUGUGGUGCUUTT against Wdr4, inactive: 3.83.

For GGACCUUAAGAAAACAAUGTT against Birc4, the z-score was inactive: 1.1.

Regarding GGCUGAUGUGGAAGGGAUGTT against Leftb, the z-score is inactive: -1.95.

As for GGAUUUGUGAAGCAGAUAATT against Tde1, the z-score is inactive: -1.64. To GGAAAAUCUAGAAGACAAUTT against Rwdd1 belongs inactive: -0.564. For the sequence GCUCAGAGCAUGUUGGUGGTT against Ripk5, the z-score was inactive: -0.966. Take GGAAAUGCCCACUAAAUUUTT against Rpl7l1: the z-score is inactive: -0.698. On to GGGUGUAUGAUCCAGUUAUTT against Olfr913, for which the z-score was inactive: -1.72.

On to GGUCUAUGUCCAAAAAGAATT against Als2cr13, for which the z-score was inactive: 0.437. For GCGAACCUGCUCACCCUUUTT against Tfcp2l4, the z-score is inactive: -0.55. To GGAACUUGACAUUGACAUATT against Klrb1d belongs inactive: 0.741; to GCUCUCAGCAUCUUCUAUUTT against Tas2r124, inactive: -0.181. To “GGUUGACCCUGGAAUCUCUTT against 1110011D13Rik” belongs inactive: -2.29; to GGAGAAGAUGGAGAAGACCTT against Ptrf, inactive: 0.726.

As for GCAAACGGACACUUGGAAUTT against Hmx1, the z-score is inactive: 0.265. The same measure for GGCUUUACGAGGAAAAAGGTT against Pex1: inactive: -0.166; for GCAGCUGGCUGCUUUCACATT against AV028368: inactive: -0.955; for GCACCAUUUGAGUUUUUCUTT against V1rc32: inactive: 0.64. In the case of GGAUGACUAAAAUGUUAAGTT against Slc20a2, the z-score is inactive: 2.26. To GGUCAGGUGGCUCAAGAAGTT against Plod3 belongs inactive: 2.73; to GGUAUAUCUGAGUUUCUACTT against Sgcz, inactive: -0.312. To GGAAGCUCUAAAAAGAGUGTT against Olfr23 belongs inactive: 0.234.

As for GCAAAUUUUGUACCAGGCCTT against Tcf2, the z-score is inactive: 0.583. The same measure for GGCCAAAGACUUUUGGAAUTT against Rgs1: inactive: -0.0471; for GCGGUAUGGGAAGCUAAAGTT against Rhbdf1: inactive: 1.16.

GGUAUUGACAGGGAUCUGATT against Limk1: the z-score was inactive: -0.413. To GCAUGACUCUCAGGUCAAGTT against Lman2 belongs inactive: -0.311; to CCUGCUACCAGAUGAACCATT against Man1b1, inactive: -1.54. To “GGACACAAUACCACUGACCTT against 2310009E07Rik” belongs inactive: 0.167; to GGCGACACAUUAAAAUAGUTT against Mepe, inactive: 1.87. The same measure for GGUUACCAUGAAGGCUGGATT against Bpil3: inactive: -2.49; for GGUUAUGAAACUUGGAAAUTT against Cdkn2c: inactive: -0.00137.
